Residue numbers refer to the chain shown, from its start. For some assays here: No signal at the amounts used counts as a negative. For some assays here: Weaker means in comparison with the reference protein, sequence or condition of that experiment. For some assays here: The exact form of at least one protein or probe is not confirmed. For some assays here: At least one verdict was read from the data and is not stated in words by the source. For some assays here: Protein sequences can lack the tags named with them.
Tests used:
[1] = target: T1, SlPSI mut IGGI I117A,G118A,G121A,I124A (Spodoptera litura) (UniProt A0A9J7DW37); assay: EMSA; details: abstract says binding lost, RNA dissolved in protein purification buffer, 20 mM Tris, 20 mM NaCl (pH not given), recombinant protein, protein details: N-terminal His6-MBP-TEV, label: 5' and 3' biotin
T1 sequence (looked up, limits assumed): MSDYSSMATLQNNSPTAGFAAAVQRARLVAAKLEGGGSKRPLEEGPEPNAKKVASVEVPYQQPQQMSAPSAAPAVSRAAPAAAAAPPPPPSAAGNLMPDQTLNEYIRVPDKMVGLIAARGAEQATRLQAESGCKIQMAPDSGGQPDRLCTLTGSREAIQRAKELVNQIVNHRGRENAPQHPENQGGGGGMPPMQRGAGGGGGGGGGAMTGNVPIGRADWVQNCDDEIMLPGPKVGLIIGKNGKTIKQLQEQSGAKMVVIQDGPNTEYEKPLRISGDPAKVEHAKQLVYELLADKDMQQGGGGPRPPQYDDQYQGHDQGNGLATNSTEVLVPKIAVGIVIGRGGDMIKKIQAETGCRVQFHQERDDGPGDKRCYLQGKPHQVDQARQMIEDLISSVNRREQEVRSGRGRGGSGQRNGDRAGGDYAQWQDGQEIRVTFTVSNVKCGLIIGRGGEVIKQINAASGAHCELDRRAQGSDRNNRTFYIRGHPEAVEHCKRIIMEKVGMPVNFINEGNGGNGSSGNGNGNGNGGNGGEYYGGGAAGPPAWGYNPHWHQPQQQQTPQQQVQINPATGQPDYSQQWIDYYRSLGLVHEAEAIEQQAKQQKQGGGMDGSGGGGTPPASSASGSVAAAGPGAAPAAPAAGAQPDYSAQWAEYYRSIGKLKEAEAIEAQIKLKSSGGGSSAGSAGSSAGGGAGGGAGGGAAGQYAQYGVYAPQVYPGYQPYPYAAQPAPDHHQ

[2] = target: BmPSI I116G (Bombyx mori) (UniProt A8R081); assay: EMSA; details: RNA dissolved in protein purification buffer, 20 mM Tris, 20 mM NaCl (pH not given), recombinant protein, residues 1-703, protein details: N-terminal His6-MBP-TEV, label: 5' and 3' biotin
[3] = target: MBP (UniProt P0AEX9); assay: EMSA; details: RNA dissolved in protein purification buffer, 20 mM Tris, 20 mM NaCl (pH not given), recombinant protein, protein details: His6-MBP from empty vector, label: 5' and 3' biotin
[4] = target: MBP-BmPSI ΔKH_1-1 (Bombyx mori) (UniProt A8R081); assay: EMSA; details: RNA dissolved in protein purification buffer, 20 mM Tris, 20 mM NaCl (pH not given), recombinant protein, residues 1-703, protein details: N-terminal His6-MBP-TEV, label: 5' and 3' biotin
[5] = target: T2, SlPSI I116G (Spodoptera litura) (UniProt A0A9J7DW37); assay: EMSA; details: RNA dissolved in protein purification buffer, 20 mM Tris, 20 mM NaCl (pH not given), recombinant protein, protein details: N-terminal His6-MBP-TEV, label: 5' and 3' biotin
T2 sequence (looked up, limits assumed): T1 sequence (looked up, limits assumed) with I116G, A117I, A118G, A121G, A124I

[6] = target: MBP-BmPSI ΔKH_1-2 (Bombyx mori) (UniProt A8R081); assay: EMSA; details: RNA dissolved in protein purification buffer, 20 mM Tris, 20 mM NaCl (pH not given), recombinant protein, residues 1-703, protein details: N-terminal His6-MBP-TEV, label: 5' and 3' biotin
[7] = target: MBP-BmPSI ΔKH_1-4 (Bombyx mori) (UniProt A8R081); assay: EMSA; details: RNA dissolved in protein purification buffer, 20 mM Tris, 20 mM NaCl (pH not given), recombinant protein, residues 1-703, protein details: N-terminal His6-MBP-TEV, label: 5' and 3' biotin
[8] = target: BmPSI mut IGGI I117A,G118A,G121A,I124A (Bombyx mori) (UniProt A8R081); assay: EMSA; details: RNA dissolved in protein purification buffer, 20 mM Tris, 20 mM NaCl (pH not given), recombinant protein, residues 1-703, protein details: N-terminal His6-MBP-TEV, label: 5' and 3' biotin
[9] = target: MBP-BmPSI ΔKH_1-3 (Bombyx mori) (UniProt A8R081); assay: EMSA; details: RNA dissolved in protein purification buffer, 20 mM Tris, 20 mM NaCl (pH not given), recombinant protein, residues 1-703, protein details: N-terminal His6-MBP-TEV, label: 5' and 3' biotin
[10] = target: BmPSI L127G (Bombyx mori) (UniProt A8R081); assay: EMSA; details: RNA dissolved in protein purification buffer, 20 mM Tris, 20 mM NaCl (pH not given), recombinant protein, residues 1-703, protein details: N-terminal His6-MBP-TEV, label: 5' and 3' biotin
[11] = system: MBP-SlPSI (Spodoptera litura); assay: EMSA; details: protein gradient, RNA dissolved in protein purification buffer, 20 mM Tris, 20 mM NaCl (pH not given), recombinant protein, protein details: N-terminal His6-MBP-TEV, label: 5' and 3' biotin
[12] = target: MBP-BmPSI ΔKH_1-4 (Bombyx mori) (UniProt A8R081); assay: competition with a labelled probe; details: unlabeled CE1 against biotin-CE1; RNA dissolved in protein purification buffer, 20 mM Tris, 20 mM NaCl (pH not given); EMSA buffer not given; recombinant protein; residues 1-703; protein details: N-terminal His6-MBP-TEV
[13] = target: MBP-BmPSI ΔKH_1-3 (Bombyx mori) (UniProt A8R081); assay: competition with a labelled probe; details: unlabeled CE1 against biotin-CE1; RNA dissolved in protein purification buffer, 20 mM Tris, 20 mM NaCl (pH not given); EMSA buffer not given; recombinant protein; residues 1-703; protein details: N-terminal His6-MBP-TEV
[14] = system: MBP-SlPSI (Spodoptera litura); assay: competition with a labelled probe; details: unlabeled CE1 against biotin-CE1; RNA dissolved in protein purification buffer, 20 mM Tris, 20 mM NaCl (pH not given); EMSA buffer not given; recombinant protein; protein details: N-terminal His6-MBP-TEV
[15] = target: BmPSI I116G (Bombyx mori) (UniProt A8R081); assay: ITC; details: 25 C; RNA dissolved in protein purification buffer, 20 mM Tris, 20 mM NaCl (pH not given); ITC at 25 C; recombinant protein; residues 1-703; protein details: N-terminal His6-MBP-TEV
[16] = target: BmPSI mut IGGI I117A,G118A,G121A,I124A (Bombyx mori) (UniProt A8R081); assay: ITC; details: 25 C; RNA dissolved in protein purification buffer, 20 mM Tris, 20 mM NaCl (pH not given); ITC at 25 C; recombinant protein; residues 1-703; protein details: N-terminal His6-MBP-TEV
[17] = target: BmPSI L127G (Bombyx mori) (UniProt A8R081); assay: ITC; details: 25 C; RNA dissolved in protein purification buffer, 20 mM Tris, 20 mM NaCl (pH not given); ITC at 25 C; recombinant protein; residues 1-703; protein details: N-terminal His6-MBP-TEV

Measured: binding result

UUAAUAAUAUAAGUGGUGUA [CE1 RNA probe, biotin]
binds: [11]
binds more weakly: [1] | [2] | [5] | [7] | [8] | [9] | [10]
no binding: [3] | [4] | [6]

UUAAUAAUAUAAGUGGUGUA [CE1 RNA, unlabeled]
binds more weakly: [15] | [16] | [17]
binds: [12] | [13] | [14]

From paper PMC6539025, “P-element Somatic Inhibitor Protein Binding a Target Sequence in dsx Pre-mRNA Conserved in Bombyx mori and Spodoptera litura”
